## Screening data

From PubChem BioAssay record AID1159506 (NCATS, 2015).

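Luminescence from an EWS-FLI1 target-promoter (NR0B1) reporter, set against a CMV-promoter reporter, two days after silencing single genes in TC32 Ewing sarcoma cells. Each siRNA was applied at 20 nM. A z-score of the log NR0B1-over-CMV signal, less the median of siRNAs with the same seed; more negative means a stronger specific loss of the NR0B1 reporter.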

The strongest results of the screen are mostly left out here. Sequences are the guide (antisense) strand, without overhang.

- AAUAUUUUUCUGGACAUCC against GPATCH11 : seed-corrected z-score 0.4694
- UUUUCUAAAGGGCCUAGAG against RPL21P7 : seed-corrected z-score 0.09657
- AAUGCUGUUACAGUUCACG against PGC : seed-corrected z-score 0.4815
- UAUUGCCUAAUGAUUCCUG against PJA2 : seed-corrected z-score 0.6046
- UAUAUUCCUCUGGUAACUC against TYW5 : seed-corrected z-score 0.849
- UUACACUACACUGAUUGCC against TBC1D8B : seed-corrected z-score -0.1667
- AGAUGUCGUAGUUCAUUGC against KIAA1644 : seed-corrected z-score -0.6504
- UCUUAGACCAUUUGAUGCG against VCAN : seed-corrected z-score -0.01533
- UCUUGGAAGAUAGGAACUC against WFDC21P : seed-corrected z-score 0.6646
- UUGAUUACGGCUAACAUCC against MTDH : seed-corrected z-score 1.345
- UGUACUACCAUGCUCGGCU against DLGAP1 : seed-corrected z-score -0.2596
- UUUGGAAUAUCUAACUUGG against ARPC1A : seed-corrected z-score 0.8454
- GUCGGUAGAAGAGGUACCC against PNKD : seed-corrected z-score 0.8931
- UUUAUGUGGAGCCUGGUUG against APOBEC3G : seed-corrected z-score 0.03814
- AAAAGGUUCCAGCAUCUCU against PCDHB13 : seed-corrected z-score 0.104
- UAAUUUUUAAUGAGGAAGG against SPRED1 : seed-corrected z-score -0.0274
- UUAAGAAAACGAGUAAACA against DNAJC14 : seed-corrected z-score 0.5285
- UGAGUCUUGACGUGCUUCG against SP5 : seed-corrected z-score -0.2868
- UUUGCAUUUUGCCUGAUGC against GPR85 : seed-corrected z-score -0.08025
- AAGAUGACCACUGUUCUGG against MYL12BP2 : seed-corrected z-score 1.113
- UUGCGGAAAAACGUGUUGC against SV2A : seed-corrected z-score 0.09682
- UAAGAUGAUAAGGAAACCU against GTSF1 : seed-corrected z-score 0.1586
- UUCUCGUUCAUCAUCCGUG against GRHL2 : seed-corrected z-score -1.249
- UCAAAAAGUACCAUCGAUC against LOC729970 : seed-corrected z-score 0.1361
- UAUUCUGUUAUGGUUAGGC against LOC728254 : seed-corrected z-score -0.8011
- UUGCGUGUUAGCUAAAACC against CAGE1 : seed-corrected z-score -0.4277
- UUUUGAAUCUUGCUUGUUG against CCDC74A : seed-corrected z-score -0.2391
- UCGAUUAAAAGGCAGUUUC against SH3D19 : seed-corrected z-score -0.01125
- UGUUGAUGAAGUUAAGGUG against SCN4A : seed-corrected z-score -0.198
- UACAAUACGAGUAUUACGC against CCDC7 : seed-corrected z-score -0.6613
- AAGGCGAUAACAUUCUGGG against SLC35E1 : seed-corrected z-score -1.017
- AUUGAUGUAUCCAUUCUCC against RGL2 : seed-corrected z-score -1.013
- UCAUGUGGAAGUCACGCCC against PDCD1 : seed-corrected z-score -0.3698
- UUAACCACACUGGUCAUCG against KNSTRN : seed-corrected z-score -0.4541
- UUAGAGUUGUGCAGUUUGC against CWC25 : seed-corrected z-score 1.702
- AUAUUGGUAGAGAUAGUUC against STRADBP1 : seed-corrected z-score 1.358
- UUCUCAGAUUGUUUGAUAG against ZC4H2 : seed-corrected z-score 0.006599
- UCAUAAUCAGGAGCAAGUC against RPL23AP25 : seed-corrected z-score 0.04126
- UAAUGGAGUUUGUAACGGC against TRAPPC1 : seed-corrected z-score -0.272
- UGGUUUUCGAGAUUUUUAG against ZDHHC2 : seed-corrected z-score 0.2559
- UCCGAUAUAAUUCUUCUAC against ZNF474 : seed-corrected z-score -0.05672
- UAAGCAUCGUGUGCUGGGC against TCIRG1 : seed-corrected z-score -0.07391
- UAUGGUAAACUUCACAGGC against TMEM87B : seed-corrected z-score 0.03724
- UGUCAUGUAACUCAUAUCC against GALNT5 : seed-corrected z-score 0.3381
- UCAGACACCAGUAGAAGCC against PIGR : seed-corrected z-score 0.732
- UACAGUGUCAACACUUGCU against MOSPD1 : seed-corrected z-score 0.9032
- UUACUUCAGAGGUAUCAUU against ZNF780A : seed-corrected z-score 0.3343
- UUGGAGUGAACUUCUCAGC against DUOXA1 : seed-corrected z-score -0.226
- UUGACUUUCAGAGGUAGCA against TMEM223 : seed-corrected z-score -0.864

The first 3 entries again:

siRNA,target gene,seed-corrected z-score
AAUAUUUUUCUGGACAUCC,GPATCH11,0.4694
UUUUCUAAAGGGCCUAGAG,RPL21P7,0.09657
AAUGCUGUUACAGUUCACG,PGC,0.4815